# Assay results as given in patent publication US10479958B2, “Olive pomace products, method of production and their uses” (UNIVERSIDADE DO PORTO, priority 2016, dated 2019).
# At least one structure is not confirmed: it was looked up by name or label, or the drawing left a doubt.
# Assay: FRAP (ferric reducing antioxidant power) assay
smiles,measurement,value
"OCCc1ccc(O)c(O)c1 [hydroxytyrosol, 3,4-dihydroxyphenyl-ethanol]",antioxidant activity evaluated by FRAP assay,9 µmol/mL
